In the experiment the test system is BDF1 mice, B16 melanoma ip, median survival T/C. Nature of the experiment: NCI In Vivo Anticancer Drug Screen. Data for tumor model B16 Melanoma (intraperitoneal) in B6D2F1 (BDF1) mice. Conditions: T/C endpoint: median survival time, higher T/C = longer survival. The method, boiled down:
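In this screen, activity was judged from survival or tumor size in treated versus vehicle-treated tumor-bearing mice, reported as T/C.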

Setting [1] is: dose: 50.0 mg/kg/injection, schedule: Q01DX009 (ip), vehicle: saline with Tween-80.
Setting [2] is: dose: 100.0 mg/kg/injection, schedule: Q01DX009 (ip), vehicle: saline with Tween-80.
Setting [3] is: dose: 80.0 micrograms/kg/injection, schedule: Q01DX009 (ip), vehicle: saline.
[4] abbreviates: dose: 200.0 mg/kg/injection, schedule: Q01DX009 (ip), vehicle: saline with Tween-80.
[5] abbreviates: dose: 400.0 mg/kg/injection, schedule: Q01DX009 (ip), vehicle: saline with Tween-80.
Where [6] appears, read: dose: 0.78 mg/kg/injection, schedule: Q01DX009 (ip), vehicle: Klucel (hydroxypropylcellulose) (HPC).

SMILES strings stand for the structures. The list is a part of this screen's results and no random one: it gathers tests that were run many times, whatever their T/C, doses with no T/C, and many T/C values between a quarter and a half above the control. Further doses and runs are listed elsewhere. T/C: endpoint of the treated group in % of that of the vehicle group. Some entries give survivors of the animals treated and no T/C: the source files T/C as zero there, which appears to mark a toxic dose or a test without result, not a measured value. Some survivor counts are full or nearly so, which does not show that the dose was tolerated: survival well below the control is almost never listed, so the zero probably covers shortened survival too. Counts of survivors are from the toxicity check (mostly the fifth day) where no day follows; animals may have died later. Schedules are NCI's codes, read here as Q, the interval in days (D) or hours (H), X, the number of doses. Marks such as (2×) give the number of equal values in this list. Some entries were tested several times; the values are given in rising order. Where survival is the endpoint, this PubChem deposit counts one and a half times the control or more as active, and values a quarter to a half above the control carry no call in these data; other NCI protocols may use other cut-offs.

As to `C/C=C(\C)C(=O)N/N=C\c1cc(Cl)cc(Cl)c1O`, the survivor count is, setting by setting: (dose: 12.5 mg/kg/injection, schedule: Q01DX009 (ip), vehicle: olive oil, sesame oil, peanut oil) 10 of 10 (2×); (dose: 25.0 mg/kg/injection, schedule: Q01DX009 (ip), vehicle: olive oil, sesame oil, peanut oil) 10 of 10; (dose: 50.0 mg/kg/injection, schedule: Q01DX009 (ip), vehicle: olive oil, sesame oil, peanut oil) 10 of 10 (2×); (dose: 100.0 mg/kg/injection, schedule: Q01DX009 (ip), vehicle: olive oil, sesame oil, peanut oil) 10 of 10; (dose: 200.0 mg/kg/injection, schedule: Q01DX009 (ip), vehicle: olive oil, sesame oil, peanut oil) 10 of 10; (dose: 400.0 mg/kg/injection, schedule: Q01DX009 (ip), vehicle: olive oil, sesame oil, peanut oil) 2 of 10 and 9 of 10.

Take `NCC(=O)Nc1ccc(O)cc1`: the survivor count (dose: 600.0 mg/kg/injection, schedule: Q01DX009 (ip), vehicle: saline) is 6 of 6.

For the compound `Cc1cc(Cl)ccc1NC(=O)Nc1ccccc1`, the survivor count (dose: 100.0 mg/kg/injection, schedule: Q01DX009 (ip), vehicle: gum acacia) is 10 of 10; the survivor count (dose: 200.0 mg/kg/injection, schedule: Q01DX009 (ip), vehicle: gum acacia) was 10 of 10; the survivor count (dose: 400.0 mg/kg/injection, schedule: Q01DX009 (ip), vehicle: gum acacia) is recorded as 9 of 10.

On to `Cl/C=C(\Cl)CCl`, for which the survivor count reads like this: (dose: 25.0 mg/kg/injection, schedule: Q01DX009 (ip), vehicle: saline with Tween-80) 9 of 10 and 10 of 10; under setting [1], 2 of 10; under setting [2], 0 of 10.

In the case of `CC[C@H]1CN2CCc3cc(OC)c(OC)cc3[C@@H]2C[C@@H]1C[C@H]1NCCc2cc(OC)c(OC)cc21`, the survivor count by setting is: (dose: 7.0 mg/kg/injection, schedule: Q01DX009 (ip), vehicle: saline) 9 of 10; (dose: 14.0 mg/kg/injection, schedule: Q01DX009 (ip), vehicle: saline) 9 of 10 and 10 of 10; (dose: 28.0 mg/kg/injection, schedule: Q01DX009 (ip), vehicle: saline) 0 of 10; (dose: 32.7 mg/kg/injection, schedule: Q04DX003 (ip), vehicle: saline) 7 of 8.

Take `O=C1N(CC2CO2)CCN1CC1CO1` (stereo not drawn): the T/C (dose: 50.0 mg/kg/injection, schedule: Q01DX009 (ip), vehicle: suspension in saline) is 146 % of control. The survivor count (dose: 200.0 mg/kg/injection, schedule: Q01DX009 (ip), vehicle: suspension in saline) is on record as 9 of 10.

Take `CCN(CC)Cc1cc2[nH]c3c4ccc(Cl)cc4ncc3c2cc1OC`: the T/C under setting [1] is 126 % of control. In addition, the survivor count under setting [2] is given as 7 of 10.

Regarding `O=[As](O)(O)c1ccc(Nc2nc(Cl)nc(Cl)n2)cc1`, under “dose: 50.0 mg/kg/injection, schedule: Q01DX009 (ip), vehicle: Klucel (hydroxypropylcellulose) (HPC)”, the survivor count is on record as 5 of 10.

Regarding `Cc1cc2c(c3oc(C4(C)OC4C4OC4C)cc(=O)c13)C(=O)c1c(O)c(C3CC(C)(N(C)C)C(O)C(C)O3)cc(C3CC(N(C)C)C(O)C(C)O3)c1C2=O` (stereo not drawn), the T/C was 131 % of control (dose: 0.5 micrograms/kg/injection, schedule: Q01DX009 (ip), vehicle: Klucel (hydroxypropylcellulose) (HPC)); 130 % of control (2×) (dose: 1.0 micrograms/kg/injection, schedule: Q01DX009 (ip), vehicle: Klucel (hydroxypropylcellulose) (HPC)); 130 and 136 % of control (dose: 2.0 micrograms/kg/injection, schedule: Q01DX009 (ip), vehicle: Klucel (hydroxypropylcellulose) (HPC)); 133 % of control (dose: 2.5 micrograms/kg/injection, schedule: Q01DX009 (ip), vehicle: Klucel (hydroxypropylcellulose) (HPC)); 145 % of control (dose: 4.0 micrograms/kg/injection, schedule: Q01DX009 (ip), vehicle: Klucel (hydroxypropylcellulose) (HPC)); 126 % of control (dose: 5.0 micrograms/kg/injection, schedule: Q01DX009 (ip), vehicle: clinical formulation). In addition, the T/C (dose: 20.0 micrograms/kg/injection, schedule: Q01DX009 (ip), vehicle: saline) was 128 % of control and the T/C under setting [3] was 133 % of control. Moreover, the survivor count is, setting by setting: (dose: 4.0 micrograms/kg/injection, schedule: Q01DX009 (ip), vehicle: saline) 10 of 10; (dose: 8.0 micrograms/kg/injection, schedule: Q01DX009 (ip), vehicle: saline) 10 of 10; (dose: 10.0 micrograms/kg/injection, schedule: Q01DX009 (ip), vehicle: Klucel (hydroxypropylcellulose) (HPC)) 10 of 10; (dose: 16.0 micrograms/kg/injection, schedule: Q01DX009 (ip), vehicle: saline) 10 of 10; (dose: 20.0 micrograms/kg/injection, schedule: Q01DX009 (ip), vehicle: Klucel (hydroxypropylcellulose) (HPC)) 10 of 10; (dose: 20.0 micrograms/kg/injection, schedule: Q01DX009 (ip), vehicle: clinical formulation) 10 of 10. Also, the survivor count is 10 of 10 (dose: 30.0 micrograms/kg/injection, schedule: Q01DX009 (ip), vehicle: saline); 10 of 10 (dose: 40.0 micrograms/kg/injection, schedule: Q01DX009 (ip), vehicle: clinical formulation); 6 of 6 (dose: 40.0 micrograms/kg/injection, schedule: Q01DX009 (ip), vehicle: saline); 9 of 10 (dose: 80.0 micrograms/kg/injection, schedule: Q01DX009 (ip), vehicle: clinical formulation); 6 of 6 under setting [3]; 3 of 10 (dose: 160.0 micrograms/kg/injection, schedule: Q01DX009 (ip), vehicle: clinical formulation). In addition, the survivor count (dose: 160.0 micrograms/kg/injection, schedule: Q01DX009 (ip), vehicle: saline) is on record as 10 of 10.

With `S=C([S][Sn]([c]1ccccc1)([c]1ccccc1)[c]1ccccc1)N1CCCCC1`, the survivor count under setting [1] was 10 of 10, the survivor count under setting [2] is 3 of 10, the survivor count under setting [4] is recorded as 0 of 10 and the survivor count under setting [5] was 0 of 10.

Consider `COc1cc(-c2ccc(N=Nc3ccc4c(S(=O)(=O)O)cc(S(=O)(=O)O)c(N)c4c3O)c(OC)c2)ccc1N=Nc1ccc2c(S(=O)(=O)O)cc(S(=O)(=O)O)c(N)c2c1O`, for which the survivor count runs as follows: (dose: 100.0 mg/kg/injection, schedule: Q01DX009 (ip), vehicle: saline) 10 of 10; (dose: 200.0 mg/kg/injection, schedule: Q01DX009 (ip), vehicle: saline) 9 of 10; (dose: 400.0 mg/kg/injection, schedule: Q01DX009 (ip), vehicle: saline) 0 of 10.

Regarding `CN1C(=O)CCS(=O)(=O)C1c1ccc(Cl)cc1` (stereo not drawn), the survivor count is 10 of 10 (dose: 0.09 mg/kg/injection, schedule: Q01DX009 (ip), vehicle: Klucel (hydroxypropylcellulose) (HPC)); 10 of 10 (dose: 0.19 mg/kg/injection, schedule: Q01DX009 (ip), vehicle: Klucel (hydroxypropylcellulose) (HPC)); 10 of 10 (dose: 0.39 mg/kg/injection, schedule: Q01DX009 (ip), vehicle: Klucel (hydroxypropylcellulose) (HPC)); 10 of 10 under setting [6]; 10 of 10 (dose: 1.56 mg/kg/injection, schedule: Q01DX009 (ip), vehicle: Klucel (hydroxypropylcellulose) (HPC)). For the same compound, under setting [6], the T/C was 140 % of control.

On to `CCC1OCC(C(Cl)CCl)O1` (stereo not drawn), for which the survivor count (dose: 400.0 mg/kg/injection, schedule: Q01DX009 (ip), vehicle: Klucel (hydroxypropylcellulose) (HPC)) is recorded as 3 of 10.

Regarding `CC(CN(C)C)CN1c2ccccc2Sc2ccccc21` (stereo not drawn), the survivor count runs as follows: under setting [1], 2 of 10 and 4 of 10; under setting [2], 0 of 10; under setting [4], 0 of 10.

`NC(Cc1cc(I)c(O)c(I)c1)C(=O)O` (stereo not drawn): for the setting “dose: 50.0 mg/kg/injection, schedule: Q01DX009 (ip), vehicle: carboxymethylcellulose (CMC)”, the T/C is 128 % of control. Also, under “dose: 400.0 mg/kg/injection, schedule: Q01DX009 (ip), vehicle: carboxymethylcellulose (CMC)”, the survivor count was 5 of 10.

In the case of `CC(=O)N(C)O`, under setting [5], the survivor count was 5 of 10.

The record behind these values is PubChem BioAssay AID192 (DTP/NCI, 2004).
